# Assay results reported in patent US4937232A, “Inhibition of protein kinase C by long-chain bases” (priority 1988, dated 1990).
# Test system: HL-60 cells
# Experiment: Free long-chain base content of HL-60 cells by HPLC
# Parameters: species or system human
structure (smiles),measurement,value
CCCCCCCCCCCCC/C=C/[C@@H](O)[C@@H](N)CO [sphingosine],endogenous level of free long-chain base in HL-60 cells,12.3±1.2 pmoles/10^6 cells
same,share of the total free long-chain base detected,> 80%
